Experimental data: PubChem BioAssay AID743121 (NCATS, 2013)

Purpose: 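Genes whose silencing strengthens cell killing by camptothecin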 (primary screen)
System: MDA-MB-231 cells, a human breast cancer line
Knock-down reagent: single siRNA against human genes, 20 nM siRNA (0.8 pmol per well)
Time to read-out: 120 h (drug added 48 h after transfection, read 72 h later)
Treatment: camptothecin 20 nM (about EC30) for 72 h; vehicle 0.1% DMSO in parallel plates
Measured: 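Cell viability by ATP luminescence (CellTiter-Glo) as % of non-targeting siRNA wells, and the log2 ratio of viability without drug over viability with camptothecin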
Direction: log2 vehicle/camptothecin viability: higher = stronger sensitisation to camptothecin
Hit rule: 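Each gene scored by redundant siRNA activity (RSA) over its individual siRNA ratios; a gene is called active at p < 0.001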
In all, the deposit lists about 26,000 reagents; below is an unselected part. Of all reagents, 167 (0.63%) were called active. 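Calls are per gene from RSA p-values that are not deposited; an individual active-marked siRNA can sensitise only weakly.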 A number with no mark means an inactive call. Reagents against one gene are numbered here. Further read-outs or replicates are left out here.

| gene | siRNA no. | log2 vehicle/camptothecin viability |
| --- | --- | --- |
| STX16 (syntaxin 16) | 1 | -0.518 |
| STX16 (syntaxin 16) | 2 | 0.187 |
| STX16 (syntaxin 16) | 3 | -0.122 |
| STX16 (syntaxin 16) | 4 | -0.137 |
| TGM5 (transglutaminase 5) | 1 | -0.311 |
| TGM5 (transglutaminase 5) | 2 | 0.0678 |
| TGM5 (transglutaminase 5) | 3 | -0.122 |
| TGM5 (transglutaminase 5) | 4 | -0.236 |
| KCNV2 | 1 | -0.539 |
| KCNV2 | 2 | -1.96 |
| KCNV2 | 3 | -0.877 |
| UNG (uracil DNA glycosylase) | 1 | -0.393 |
| UNG (uracil DNA glycosylase) | 2 | 0.0443 |
| UNG (uracil DNA glycosylase) | 3 | -0.277 |
| IL18BP (interleukin 18 binding protein) | 1 | -0.575 |
| IL18BP (interleukin 18 binding protein) | 2 | -0.556 |
| IL18BP (interleukin 18 binding protein) | 3 | -0.0288 |
| IL18BP (interleukin 18 binding protein) | 4 | 0.19 |
| CYP2J2 (cytochrome P450 family 2 subfamily J member 2) | 1 | -0.0895 |
| CYP2J2 (cytochrome P450 family 2 subfamily J member 2) | 2 | 0.123 |
| CYP2J2 (cytochrome P450 family 2 subfamily J member 2) | 3 | -0.0192 |
| DUSP18 (dual specificity phosphatase 18) | 1 | -0.351 |
| DUSP18 (dual specificity phosphatase 18) | 2 | -0.0637 |
| DUSP18 (dual specificity phosphatase 18) | 3 | 0.277 |
| DUSP18 (dual specificity phosphatase 18) | 4 | 0.788 |
| RAB40A (RAB40A, member RAS oncogene family) | 1 | -0.434 |
| RAB40A (RAB40A, member RAS oncogene family) | 2 | -0.106 |
| RAB40A (RAB40A, member RAS oncogene family) | 3 | -0.11 |
| RAB40A (RAB40A, member RAS oncogene family) | 4 | -0.102 |

Copied from above (2 entries):
| gene | siRNA no. | log2 vehicle/camptothecin viability |
| --- | --- | --- |
| TGM5 (transglutaminase 5) | 1 | -0.311 |
| TGM5 (transglutaminase 5) | 2 | 0.0678 |
